# Test results taken from PubChem BioAssay AID1347075 (National Center for Advancing Translational Sciences (NCATS), 2019).
# The campaign covered roughly 400,000 compounds. About 5,500 (1.4%) were called active. This list was built around the results that the source calls inconclusive (neither active nor inactive); the mix of calls is not that of the screen. Calls follow the shape of the dose curve; as a rule, active = well fitted cell-killing curve with a large enough effect; inconclusive = small, poorly fitted or top-dose-only effect, or effect the other way; inactive = flat fitted curve, though single readings scatter. A potency beside an inconclusive call is a rough fit, not a confirmed value.
# Experiment: qHTS assay for MDR1-selective chemotherapeutics: Primary screen using the parental adenocarcinoma cell KB-3-1; also: nearly all actives have a fitted effect of over 60% in size
# Conditions: KB-3-1 viability, CellTiter-Glo ATP luminescence, 72 h; activity change, negative = cytotoxic: at 46.1 µM (top of the series)
# In short: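 Cytotoxicity measured as CellTiter-Glo luminescence after 72 h at 37 C. Compound titrations were pinned onto drug-naive KB-3-1 parental adenocarcinoma cells grown in DMEM with 10% FBS, and normalized data fitted to concentration-response curves.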
# % is scaled to controls: 0 for no effect and ±100 for the full control effect; potency is read from the fitted curve at half-maximal effect.
SMILES,Potency,"activity change, negative = cytotoxic"
O=C(NC1CCCCC1)C(c1ccccc1)N1CCc2ccccc21 (centres undefined),"inconclusive: 8.2 µM [cytotoxic, partial curve]",–
N#Cc1c(-c2ccccc2Cl)noc1/C=C/Nc1ccc(C(=O)O)cc1,inactive,–
CC(=NNC(=S)Nc1ccccc1)c1ccccn1,"inconclusive: 13 µM [cytotoxic, partial curve, poor fit]",–
CCc1ccc(NC2=CC(=O)C(=O)c3ccccc32)cc1,active: 18.4 µM,–
COc1ccc(NC(=O)CN2c3cccc4cccc(c34)S2(=O)=O)cc1,inactive,–
CC(=O)c1ccc(N2CCN(C(=O)C3CCN(S(=O)(=O)c4ccc(Br)s4)CC3)CC2)cc1,inactive,–
Cc1c(N/N=C(\C#N)C(=O)c2ccccc2)c(=O)n(-c2ccccc2)n1C,"inconclusive: 0.0052 µM [cytotoxic, full curve, poor fit]",–
O=C(Nc1ccc(F)c(F)c1)c1cnn2c1NC(=C1CC1)C=C2C(F)(F)F,–,inconclusive: 33.1%
CCCNS(=O)(=O)c1ccc(CCC(=O)Nc2ccc3c(c2)OCCO3)cc1,inactive,–
COc1ccc(CCNc2oc(COc3ccc(Br)cc3)nc2C#N)cc1OC,"inconclusive: 23.1 µM [cytotoxic, single point]",–
O=C(NCC(=O)N1CCN(c2ncc(C(F)(F)F)cc2Cl)CC1)c1ccc(Br)o1,"inconclusive: 0.058 µM [cytotoxic, full curve]",–
Cc1[nH]c(C)c(S(=O)(=O)N2CCN(c3cccc(Cl)c3)CC2)c1C(=O)N1CCCCC1,"inconclusive: 25.9 µM [cytotoxic, single point]",–
CCN(CC)c1ccc(NC(=O)c2cnccn2)cc1S(=O)(=O)Nc1ccc(OC)cc1,"inconclusive: 29.1 µM [cytotoxic, single point]",–
CC(=O)N1CCN(c2ccc(Nc3ncnc4c3oc3ccccc34)cc2)CC1,"inconclusive: 23.1 µM [cytotoxic, single point]",–
CCN(C(=O)COC(=O)c1ccccc1Cc1ccccc1)c1c(N)n(Cc2ccccc2)c(=O)[nH]c1=O,"inconclusive: 18.4 µM [cytotoxic, single point]",–
Cc1cc(C)nc(SCC(=O)Nc2ncc(Cc3ccc(Cl)c(Cl)c3)s2)n1,"inconclusive: 29.1 µM [cytotoxic, single point]",–
CC[N+](CC)(CC#Cc1ccccc1)CC#Cc1ccccc1,active: 8.2 µM,–
CCN(CC(=O)Nc1ccccc1OC)C(=O)c1ccc(N(C)S(=O)(=O)c2ccc(C)cc2)cc1,inactive,–
CCC1=Nc2cc(C(=O)O)ccc2Sc2ccccc21,inactive,–
O=C(CN(Cc1ccccc1)C(=O)CCl)c1cccc(Br)c1,"inconclusive: 20.6 µM [cytotoxic, partial curve, poor fit]",–
O=C(CSc1nc(-c2ccccc2)c(-c2ccccc2)[nH]1)Nc1ccc2c(c1)OCO2,"inconclusive: 32.6 µM [cytotoxic, single point]",–
CCOC(=O)C1(CCOc2ccccc2)CCN(Cc2cc(OC)c3c(c2)OCO3)CC1,"inconclusive: 18.4 µM [cytotoxic, single point]",–

# Exported as tab-separated lines: entries from further up
SMILES	Potency	activity change, negative = cytotoxic
O=C(NCC(=O)N1CCN(c2ncc(C(F)(F)F)cc2Cl)CC1)c1ccc(Br)o1	inconclusive: 0.058 µM [cytotoxic, full curve]	–
Cc1[nH]c(C)c(S(=O)(=O)N2CCN(c3cccc(Cl)c3)CC2)c1C(=O)N1CCCCC1	inconclusive: 25.9 µM [cytotoxic, single point]	–

# The results go on.

SMILES,Potency,"activity change, negative = cytotoxic"
CCCCCC(=O)Nc1ccc2ccccc2c1,inactive,–
O=C(Nc1ccc(-c2nc3cccnc3s2)cc1)c1ccc(Cl)nc1,"inconclusive: 10.3 µM [rising, partial curve]",–
FC(F)(F)c1nc2nc(Cl)c(Cl)nc2[nH]1,"inconclusive: 0.461 µM [cytotoxic, full curve, poor fit]",–
CNC(=S)N/N=C/c1cccc(OCc2ccccc2F)c1,"inconclusive: 25.9 µM [cytotoxic, single point]",–
COc1ccc(C(=O)Cn2nc(CNc3ccc(Br)cc3)[n+]3c2CCCCC3)cc1,active: 20.6 µM,–
CCOC(=O)c1c(C)[nH]c(C)c1S(=O)(=O)N1CCC(C(=O)N2CCN(c3cccc(C)c3)C(C)C2)CC1 (centres undefined),inactive,–
COc1ccc(Nc2ncccc2C(=O)Nc2ccccc2)cc1,"inconclusive: 29.1 µM [cytotoxic, single point]",–
O=C(Nc1ccc(C(F)(F)F)cc1)c1cc(S(=O)(=O)NC2CCCCCC2)ccc1F,"inconclusive: 29.1 µM [cytotoxic, single point]",–
O=C(N/N=C\c1ccc(Cl)s1)C1COc2ccccc2O1 (centres undefined),"inconclusive: 16.4 µM [cytotoxic, partial curve, poor fit]",–
COc1cc(CNC(C)(C)CO)cc(Br)c1OCc1ccc(Cl)cc1Cl,"inconclusive: 18.4 µM [cytotoxic, single point]",–
Cc1cc(/C=C(\C#N)C(=O)NCC2CCCO2)c(C)n1-c1ccc(Cl)cc1 (centres undefined),inactive,–
COc1cccc(-c2sc3ccccc3c2-c2ccc(OCCN(C)C)cc2)c1,"inconclusive: 23.1 µM [cytotoxic, single point]",–
C=CCNC(=S)Nc1cccc(N)c1,inactive,–
CCN(CC)CCNC(=O)c1ccc(N2CCCCC2)c(NS(=O)(=O)c2ccc(C)cc2)c1,"inconclusive: 29.1 µM [cytotoxic, single point]",–
Cc1ccc(CCSc2ccc(C(C)C)cc2)cn1,"inconclusive: 18.4 µM [cytotoxic, single point]",–
O=C(OC1CCCCC1)c1ccc(NC(=O)C2CCCCC2)cc1,"inconclusive: 29.1 µM [cytotoxic, single point]",–
Cc1cccnc1NC(=O)c1cccc(S(=O)(=O)N2CCCc3ccccc32)c1,inactive,–
COc1cc2c(cc1OC)C(C)N(C(=S)NC(=O)c1ccccc1)CC2 (centres undefined),inactive,–
O=C(Nc1ccc([N+](=O)[O-])cc1)c1nc[nH]c1C(=O)NC1CCCCC1,"inconclusive: 23.1 µM [cytotoxic, single point]",–
COc1ccc(NC(=O)c2cc(C3CCCCN3C(=O)c3cc(OC)c(C)c(OC)c3)on2)c(C)c1 (centres undefined),"inconclusive: 16.4 µM [cytotoxic, single point]",–
Cc1ccc(C(=O)Nc2nc(C(C)(C)C)cs2)s1,"inconclusive: 29.1 µM [cytotoxic, single point]",–
COc1ccc(C(=O)/C(C#N)=N/Nc2cccc([N+](=O)[O-])c2)cc1,"inconclusive: 23.1 µM [cytotoxic, single point]",–
